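Luminescence from an EWS-FLI1 target-promoter (NR0B1) reporter, set against a CMV-promoter reporter, two days after silencing single genes in TC32 Ewing sarcoma cells.
Each siRNA was applied at 20 nM.
A z-score of the log NR0B1-over-CMV signal, less the median of siRNAs with the same seed; more negative means a stronger specific loss of the NR0B1 reporter.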

This is part of the screen; most of the strongest results are not listed here.
Sequences are the guide (antisense) strand, without overhang.

siRNA | gene | seed-corrected z-score
UGAAGGAGCAGUAGACAGC | WDR83OS | 0.5523
UUAGCUUGUCAAGUUAGCC | FAM20A | 1.058
GGUGGCUAGAUGACGUAGG | TMEM89 | -0.7678
UGCUUUUCAAGAUUUCGUU | HAND2 | -0.3092
UAUUGUCAUGCGCUUGUUC | TERF2 | -0.01682
AAAGAAGCAUGAACUGGGC | LOC728417 | 0.1005
UUAUCUAAUGCAUCCAUGG | MRPL47 | -0.5275
UAGGGAUUCGCAGAAUGAG | CCM2L | -0.0323
UACGCGUCCAGCAACUUCA | DAD1 | -0.2567
UAUUGCAUUUCUUCUACCU | PKIA | 0.05773
UUCGUUCAACUUAAUAUCG | KLHL7 | 1.751
UAAGUAACGAGAGGACUUC | TGFB2-AS1 | 1.149
UACUUGGUCUUUCAGAACC | TDRD3 | -0.503
UCCAGUCAAAAUUUCCACG | GALNT3 | 0.6617
UUCUGAUCAGGUUCAGGCC | UBL7 | -1.205
AAAUCCAUGAAUAAAGGUC | C19orf67 | -0.8874
UGGGUCACCAGCUAUAUCC | PCDH7 | 0.2707
AUCUCGUCUAUGAACUUCG | PPP1R2 | -0.2658
UUAUAGGUAAGUGAAACAC | ING2 | -1.477
UAAUACUUUAGUCCACUUC | DUSP23 | 0.4326
UGCUCAUAAACUGAGUUUC | SPON1 | 0.09675
AAAGGACCAGCGGUUGGUG | RAB40C | 0.5076
UAGAUGUCUCUGGUCAUUC | INSR | 0.1176
UUCACAAACUCAAAGGCCU | DUSP1 | 0.1363
UUGGUUAUUUCAGUCGUCC | ATF7IP2 | -1.202
UGCUUGACAAUGGAGAUGU | GIT1 | -0.9993
UUAAUGGUCUGAUAAAGGG | DCP2 | -1.303
UGAGCUACUAUUCAGCGUG | PRR16 | -0.3579
UCUUGGUUUCGUCAAAAGC | PDIA2 | 0.2483
UAGGCCGCUAGGAUGUUGC | EVA1A | 0.09763
UUUGGGACGACUGAACUUG | MYOZ3 | 0.1395
UAGGUCUUCAGCACACUCC | GFER | -0.6319
UUUCGAGUUCGUCUGACUG | FMN2 | -0.3197
UGUGAUUUAGGACUUCCUC | ACYP1 | 2.917
UUCACUUGCAUCCUUGCCG | HIC2 | -0.664
UUGGACAUCAGAUCUGAGG | VPS4A | 0.2657
UGAUGUCGUAGCAAUGACC | UGGT1 | -0.6361
AUACCAAUAGAGAUCUUGC | ABCC4 | -0.3785
UAUUGUGAUAUAGUAUGAG | TMEM225 | -0.4397
UCUGAUAGCACUGUAGGAG | ENPP2 | -0.6583
UUCUUGAUAUGGAGUAUCG | EXD1 | 0.3191
UAAGGCAACUGGAAGCUGG | KCNE5 | 0.5566
UUGCUAACAGCAGAUAUUG | SCARB2 | -0.4201
UCUUCGUCAUUGUUAUUAC | ZNRF3 | -0.1818
UUUGGUACAAAUCCACUCU | RAB39B | -0.1312
UCACUGUACUUGAACUUUC | CYP2E1 | 0.4158
UUCGCGGUGAUGAUGAGGC | GPBAR1 | -0.2373
UGAGUCCACAGAUCCACAC | CRB2 | 0.2563
UUACCUUGUAGACUUUGCC | MYO3B | 0.1909

Repeated from the top, 3 entries:

siRNA,gene,seed-corrected z-score
UGAAGGAGCAGUAGACAGC,WDR83OS,0.5523
UUAGCUUGUCAAGUUAGCC,FAM20A,1.058
GGUGGCUAGAUGACGUAGG,TMEM89,-0.7678

Data taken from PubChem BioAssay AID1159506, deposited by NCATS (2015).